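Viability assay of Plasmodium falciparum sporozoites; the read-out is not stated. The concentration is filed as 10 mM, unlikely as a test dose, so the dose is not known. Direction is inferred from retests: higher values go with lower viability. Strong results were mostly tested again. About 34,000 compounds were tested under these conditions; 0.84% (about 280) showed 50% or more at least once.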

Values are the deposited “Percent Effect”, in %. The record does not define 0% and 100%; most values in the screen are far below 50% and negative numbers occur (in some assays of this library far below -100). The compounds are a random part of those screened. Two or more numbers in one place are separate tests of the same structure; such repeats can differ widely.

| compound | effect |
|---|---|
| `COCCCN1CCC(C(=O)c2cc(F)ccc2F)CC1` | 10.47 |
| `CC(Cn1ccnc1)NC(=O)NCc1cccnc1OC1CCCC1` (centres unmarked) | 6.441 |
| `Cc1ccc(CN2CCCC3(CCC(=O)N3)CC2)s1.O=C(O)C(F)(F)F` (centres unmarked) | 16.42 |
| `CCn1nc(C)c(CN(CCCOC)Cc2ccccn2)c1C.O=C(O)CC(O)(CC(=O)O)C(=O)O` | 5.888 |
| `[H][C@@]12CS(=O)(=O)C[C@]1([H])N(Cc1ccc(OCC)cc1)CCN2CCOC` | 1.654 |
| `Cc1nc(NCC2CC2)nc2c1COCC21CCNC1` (centres unmarked) | 2.148 |
| `Cc1cc(NC(=O)CCN2CCCC2Cn2cccn2)no1` (centres unmarked) | 1.912 |
| `Cc1csc(C(Cc2cccs2)NCc2cc3c(cc2C)OCO3)n1` (centres unmarked) | 10.71 |
| `Cc1cccc(NC(=O)C2CSCN2C(=O)c2cnccn2)c1C` (centres unmarked) | 2.572 |
| `Cc1ccc2[nH]c(C3CCN(C)CC3)nc2c1` | 7.491 |
| `Cc1ccc(-c2nc(C3CCN(C(=O)c4ccnn4C)CC3)no2)cn1` | 13.76 |
| `CNS(=O)(=O)c1cccc(CNCc2ccsc2)c1` | -24.7 |
| `Cc1cc(F)ccc1-c1cc(NCCO)nc2[nH]ccc12` | 8.246 |
| `Cc1nc(C2CCCN2CCCS(=O)(=O)c2ccccc2)no1` (centres unmarked) | 0.03256 |
| `[H][C@]12CC[C@]([H])(CN(S(=O)(=O)c3ccc(C#N)cc3)C1)N(CCOC)C2=O` | 15.14 |
| `Cc1cc2c(=O)n3c(nc2s1)CCN(C(=O)c1c(C)noc1C)CC3` | -1.68 |
| `NC(=O)COc1cccc(CN2CCc3cncnc3C2)c1` | 3.617 |
| `Cc1cc(C(=O)N2CCNC(=O)C2)c(C)n1Cc1ccccn1` | -9.903 and 3.072 |
| `O=C1NCC(C(=O)Nc2ncc(Cc3ccccc3F)s2)N1` (centres unmarked) | -3.209 |
| `O=C(O)C(F)(F)F.[H][C@@]12OCCN(CCOCc3ccccc3)[C@@]1([H])CC[C@H]2OC` | -3.322 |
| `O=C(COCC1CC1)Nc1ncn(CC(=O)N2CCCCCC2)n1` | 8.293 |
| `Cc1nc(-c2ccccc2)n(CC(=O)NC2CCCC2)n1` | 6.636 |
| `O=C(Cn1c(=O)nc2n1C(=O)N(c1ccccc1)C2)Nc1ccccc1` | 2.807 |
| `O=C(COCC1CC1)N1CCCC(n2cccn2)C1` (centres unmarked) | -5.728 and -11.13 and -18.23 |
| `O=C(O)C(F)(F)F.[H][C@]12CC[C@@]3(N=C(C)N(CC4CC4)C3=O)[C@@]1([H])CN(Cc1ccccc1C)C2` | 0.1805 |
| `Cc1cc(CNC(=O)N2CCCN(Cc3ccccc3)CC2)no1` | 7.977 |
| `O=C(c1ccc(N2CCOCC2)cc1)N1CCCC(n2ccnc2)C1` (centres unmarked) | 1.698 |
| `CCO[C@@H]1CCN(C(=O)c2ccc[nH]2)[C@@H]1Cc1cnn(C)c1` | -3.806 |
| `O=C(CNCCn1cccn1)NCC1(c2ccccc2)CCCC1` | 5.272 |
| `CS(=O)(=O)NCc1noc2c1CN(C(=O)C1CCC1)CC2` | 8.101 |
| `COc1cccc(CN2CCCCC2CN2CCOCC2)c1F` (centres unmarked) | -11.5 |
| `c1ccc2oc(CCCN3CCCC3c3noc(C4CC4)n3)nc2c1` (centres unmarked) | 8.757 |
| `O=C(O)C(F)(F)F.[H][C@]12CCC[C@@H](CN(C)C3CC3)[C@@]1([H])CN(c1ncccn1)C2` | 6.672 |
| `CCCS(=O)(=O)CC(=O)Nc1cc(CC(C)(C)C)n[nH]1` | -0.9126 |
| `CC(=O)N1CCN(c2cc(CCNC(=O)C(C)C)nc(C3CC3)n2)CC1` | -9.617 |
| `CC(C)c1cc(NCC(C)N2CCCC2)n2nccc2n1` (centres unmarked) | 6.706 |
| `CC(C)CC(=O)N1CCC2(CC1)COCCN2Cc1ccc(F)cc1.O=C(O)C(F)(F)F` | 0.5945 |
| `CCc1n[nH]c(C(=O)NCCn2nccc2C)c1C` | 28.41 and 66.23 and 77.05 |
| `CS(=O)(=O)c1ccc(CNc2nccc(C(F)(F)F)n2)cc1` | -6.439 |
| `CN(C)C(=O)COC1COC2(CCN(c3ncccn3)CC2)C1` (centres unmarked) | 13.8 |
| `COc1ccccc1C(=O)N1CCCC1c1ncc2c(n1)CCNC2.Cl` (centres unmarked) | 14.23 |
| `CC(=O)N(C)c1nc(Cn2nnnc2C2CCCC2)cs1` | 11.21 and 13.85 |
| `CC(SCCNS(=O)(=O)c1cnn(C)c1)c1cccc(F)c1` (centres unmarked) | -19.87 |
| `Cc1sc(-n2cnnn2)c(C(=O)NC(C)C)c1C` | -15.11 |
| `Cc1nn(CC(=O)N2CCCC2Cn2cccn2)c(C)c1Cl` (centres unmarked) | -11.27 |
| `COCCn1cc(C(=O)N2CCCC2c2cccc(F)c2)ccc1=O` (centres unmarked) | -7.412 |
| `COc1cc(C(=O)N(C)Cc2nccn2CC(F)(F)F)ccc1C` | 0.4476 |
| `CN(C)C(=O)c1nc2c(s1)CCN(C(=O)c1ccc(Cl)cc1)CC2` | -6.602 |

Once more, the final 4:

For Cc1nn(CC(=O)N2CCCC2Cn2cccn2)c(C)c1Cl (centres unmarked) the result was -11.27%.
For COCCn1cc(C(=O)N2CCCC2c2cccc(F)c2)ccc1=O (centres unmarked) the result was -7.412%.
For COc1cc(C(=O)N(C)Cc2nccn2CC(F)(F)F)ccc1C the result was 0.4476%.
For CN(C)C(=O)c1nc2c(s1)CCN(C(=O)c1ccc(Cl)cc1)CC2 the result was -6.602%.

The values are deposited in ChEMBL (CHEMBL3988442, “University of Dundee, Small-Polar-MMV Screening Library” (2021)).